Results as given in patent US20130331317A1.

Assays:
[1] = molecular target: binary complex of FGFR1c ligand-binding domain with murine αKlotho ectodomain (murine; human); experiment: SPR; αKlotho-FGFR1c complex (mixed 1:10 with FGF2^ΔHBScore-FGF21^C-tail or FGF21, which did not inhibit) passed over immobilised FGF23
[2] = molecular target: binary complex of FGFR1c ligand-binding domain with murine αKlotho ectodomain (murine; human); experiment: SPR competition; FGF23 in solution mixed with a fixed concentration of αKlotho-FGFR1c complex, passed over immobilised FGF23
[3] = molecular target: binary complex of FGFR1c ligand-binding domain with murine αKlotho ectodomain (murine; human); experiment: SPR; increasing concentrations of αKlotho-FGFR1c complex passed over immobilised FGF23
[4] = molecular target: binary complex of FGFR1c ligand-binding domain with murine αKlotho ectodomain (murine; human); experiment: SPR; αKlotho-FGFR1c complex passed over immobilised FGF23
[5] = molecular target: binary complex of FGFR1c ligand-binding domain with murine αKlotho ectodomain (murine; human); experiment: SPR competition; increasing concentrations of competitor mixed with a fixed concentration of αKlotho-FGFR1c complex, passed over an FGF23 chip

Measured: binding

B1: human FGF23 (Y25 to I251), N-terminally hexahistidine-tagged mature form, with R176Q/R179Q (ligand, not shown: small tags and cut ends)
chain: YPNASPLLGSSWGGLIHLYTATARNSYHLQIHKNGHVDGAPHQTIYSALMIRSEDAGFVVITGVMSRRYLCMDFRGNIFGSHYFDPENCRFQHQTLENGYDVYHSPQYHFLVSLGRAKRAFLPGMNPPPYSQFLSRRNEIPLIHFNTPIPRQHTQSAEDDSERDPLNVLKPRARMTPAPASCSQELPSAEDNSPMASDPLGVVRGGRVNTHAGGTGPEGCRPFAKFI
binds: all assays above

These are yes or no findings as the source states them, for the method shown. Binding can be weak; no strength is given. Sequences can lack the tags named with a protein.
